Results taken from PubChem BioAssay AID266 (DTP/NCI, 2004).
The list is a part of this screen's results and no random one: it is rich in T/C values a quarter to a half above the control, in often repeated tests (any T/C) and in doses without a T/C. Other doses and runs of a compound stand elsewhere. T/C gives the treated animals as a percentage of the vehicle group. Schedule codes are those of the source, taken here to give the interval after Q, in days (D) or hours (H), and the number of doses after X. Some T/C values are followed by the survivors on the day toxicity was checked, most often the fifth; without a count, all were alive then. Some entries give survivors of the animals treated and no T/C: the source holds a T/C of zero for them, seemingly a mark for toxic or unscored doses. Counts of survivors are from the toxicity check (mostly the fifth day) where no day follows; animals may have died later. Some entries were tested several times; the results are listed from low to high.

Tested on: Nude mice, LX-1 lung xenograft intrarenal, tumor weight T/C
Assay: NCI In Vivo Anticancer Drug Screen. Data for tumor model Human Lung LX-1 Xenograft (intrarenal inoculation) in NU/NU BALB/C (nude) mice
Conditions: T/C endpoint: mean tumor weight change, higher T/C = larger tumour; for T/C: evaluated on day 11
Experimental: The antitumor activity of compounds was measured in mice bearing transplantable tumors. Survival or tumor size were measured and the results are expressed as the measurement made in the treated group (T) divided by the measurement made in the vehicle treated control group (C). The tumor model used in this assay is Human Lung LX-1 Xenograft (intrarenal inoculation) in NU/NU BALB/C (nude) mice

Q: What does the source list for `O=S(=O)(CCl)OCCCl`?
A: T/C (dose: 25.0 mg/kg/injection, schedule: Q04DX003 (sc), vehicle: saline with Tween-80): 130 % of control; survivor count (dose: 200.0 mg/kg/injection, schedule: Q04DX003 (sc), vehicle: saline with Tween-80): 0 of 6 on day 11

Q: Which T/C (dose: 1600.0 mg/kg/injection, schedule: Q04DX003 (sc), vehicle: distilled water + Tween-80) does the source give for `CC(=O)Oc1c[nH]c(=O)[nH]c1=O` here?
A: Its T/C is 126 % of control [5 of 6 alive on day 11].

Q: For `CS(C)=O`, which T/C (dose: 1500.0 mg/kg/injection, schedule: Q01DX010 (sc), vehicle: saline) is on record?
A: The T/C was 127 % of control.

Q: Which T/C (dose: 300.0 mg/kg/injection, schedule: Q04DX003 (sc), vehicle: saline with Tween-80) does the source give for `CC(C#N)(C#N)N=Nc1ccc(Cl)cc1Cl` here?
A: Its T/C is 125 % of control.

Q: `N#Cc1cn(C2OC(CO)C(O)C2O)c2ncnc(N)c12` (stereo not drawn) was tested. Which T/C (dose: 0.5 mg/kg/injection, schedule: Q01DX010 (sc), vehicle: saline) did it give?
A: The T/C was 143 % of control.

Q: And the survivor count (dose: 4.0 mg/kg/injection, schedule: Q01DX010 (sc), vehicle: saline)?
A: Its survivor count is 0 of 3 on day 11.

Q: `C[C@@]1(CO)[C@H](O)CC[C@@]2(C)[C@H]1CC[C@H]1C[C@@H]3C[C@@]12CC[C@@]3(O)COC(=O)CN` was tested. Which survivor count (dose: 400.0 mg/kg/injection, schedule: Q01DX010 (sc), vehicle: saline + alcohol) did it give?
A: Its survivor count is 1 of 6 on day 11.

Q: And the survivor count (dose: 800.0 mg/kg/injection, schedule: Q01DX010 (sc), vehicle: saline + alcohol)?
A: The survivor count was 0 of 6 on day 11.

Q: How did the T/C (dose: 31.25 mg/kg/injection, schedule: Q04DX003 (sc), vehicle: water) turn out when `Cn1c(=O)[nH]c2nncnc2c1=O` was run?
A: Its T/C is 127 % of control.

Q: What about the survivor count (dose: 125.0 mg/kg/injection, schedule: Q04DX003 (sc), vehicle: water) of the same compound?
A: The survivor count was 1 of 6 on day 11.

Q: And the survivor count (dose: 250.0 mg/kg/injection, schedule: Q04DX003 (sc), vehicle: water)?
A: Its survivor count is 1 of 6 on day 11.

Q: For `CCOC(=O)C(N)CSC(=O)NC` (stereo not drawn), which survivor count (dose: 1200.0 mg/kg/injection, schedule: Q04DX003 (ip), vehicle: saline) is on record?
A: Its survivor count is 2 of 6 on day 11.

Q: With `COC1N(C2CC(O)C(CO)O2)C(=O)NC(=O)C1(F)Br` (stereo not drawn) as the compound, how does the survivor count (dose: 200.0 mg/kg/injection, schedule: Q01DX010 (sc), vehicle: saline) read?
A: Its survivor count is 0 of 3 on day 11.

Q: `CC(O)CCC(=O)c1ccoc1` (stereo not drawn) was tested. Which T/C (dose: 3.75 mg/kg/injection, schedule: Q01DX010 (ip), vehicle: saline) did it give?
A: The T/C was 127 % of control.

Q: What about the T/C (dose: 15.0 mg/kg/injection, schedule: Q01DX010 (ip), vehicle: saline) of the same compound?
A: Its T/C is 147 % of control.

Q: And the T/C (dose: 30.0 mg/kg/injection, schedule: Q01DX010 (ip), vehicle: saline)?
A: The T/C was 140 % of control.

Q: And the survivor count (dose: 60.0 mg/kg/injection, schedule: Q01DX010 (ip), vehicle: saline)?
A: Its survivor count is 0 of 6 on day 11.

Q: `CC1(C)CC2(C)OC2C2(C1)N=NC(=Nc1ccccc1)O2` (stereo not drawn) was tested. Which T/C (dose: 150.0 mg/kg/injection, schedule: Q04DX003 (sc), vehicle: saline with Tween-80) did it give?
A: Its T/C is 126 % of control.

Q: With `CN(N=O)C(=O)N[C@@H](C=O)[C@@H](O)[C@H](O)[C@H](O)CO` as the compound, how does the survivor count (dose: 600.0 mg/kg/injection, schedule: Q04DX003 (sc), vehicle: saline) read?
A: The survivor count was 0 of 6 on day 11.

Q: And the survivor count (dose: 1200.0 mg/kg/injection, schedule: Q04DX003 (sc), vehicle: saline)?
A: The survivor count was 0 of 6 on day 11.

Q: `NC(=O)/C=C/C(=O)c1c(Cl)cccc1Cl` was tested. Which survivor count (dose: 36.0 mg/kg/injection, schedule: Q04DX003 (sc), vehicle: saline with Tween-80) did it give?
A: Its survivor count is 2 of 6 on day 11.

Q: And the survivor count (dose: 72.0 mg/kg/injection, schedule: Q04DX003 (sc), vehicle: saline with Tween-80)?
A: Its survivor count is 0 of 6 on day 11.

Q: With `CCOC1=Cc2c(oc3c(C(C)(C)C)cc(OCC)cc23)OC(C(C)(C)C)=C1` as the compound, how does the T/C (dose: 75.0 mg/kg/injection, schedule: Q04DX003 (sc), vehicle: saline with Tween-80) read?
A: The T/C was 142 % of control.

Q: With `O=NN(CCCl)C(=O)NCCO` as the compound, how does the survivor count (dose: 25.0 mg/kg/injection, schedule: Q04DX003 (sc), vehicle: water) read?
A: The survivor count was 0 of 3 on day 11.

Q: How did the survivor count (dose: 2.0 mg/kg/injection, schedule: Q04DX003 (sc), vehicle: water) turn out when `CCC1=C[C@H]2CN(CCc3c([nH]c4ccccc34)[C@@](C(=O)OC)(c3cc4c(cc3OC)N(C)[C@H]3[C@@](O)(C(=O)NC)[C@H](OC(C)=O)[C@]5(CC)C=CCN6CC[C@]43[C@@H]65)C2)C1` was run?
A: Its survivor count is 2 of 6 on day 11.

Q: What about the survivor count (dose: 4.0 mg/kg/injection, schedule: Q04DX003 (sc), vehicle: water) of the same compound?
A: Its survivor count is 0 of 6 on day 11.

Q: What about the survivor count (dose: 8.0 mg/kg/injection, schedule: Q04DX003 (sc), vehicle: water) of the same compound?
A: Its survivor count is 0 of 6 on day 11.

Q: How did the survivor count (dose: 100.0 mg/kg/injection, schedule: Q04DX003 (sc), vehicle: saline with Tween-80) turn out when `Cc1c(CNc2ccc(C(=O)NC(CC(=O)O)C(=O)O)cc2)ccc2nc(N)nc(N)c12` (stereo not drawn) was run?
A: Its survivor count is 2 of 6 on day 11.

Q: Which results are given for `CC1(CO)C(O)CCC2(C)C1CCC1CC3CC12CCC3(O)CO` (stereo not drawn)?
A: T/C (dose: 50.0 mg/kg/injection, schedule: Q01DX010 (sc), vehicle: saline with Tween-80): 146 % of control; survivor count (dose: 400.0 mg/kg/injection, schedule: Q01DX010 (sc), vehicle: saline with Tween-80): 0 of 3 on day 11

Q: How did the survivor count (dose: 100.0 mg/kg/injection, schedule: Q01DX010 (sc), vehicle: saline with Tween-80) turn out when `CN(N=O)C(N)=O` was run?
A: Its survivor count is 0 of 3 on day 11.

Q: For `CN(C)N=Nc1ccc(S(N)(=O)=O)cc1`, which survivor count (dose: 800.0 mg/kg/injection, schedule: Q01DX010 (sc), vehicle: Klucel (hydroxypropylcellulose) (HPC)) is on record?
A: The survivor count was 3 of 6 on day 11.

Q: For `S=P(N1CC1)(N1CC1)N1CC1`, which survivor count (dose: 8.0 mg/kg/injection, schedule: Q01DX010 (sc), vehicle: saline) is on record?
A: The survivor count was 0 of 3 on day 11.

Q: And the survivor count (dose: 16.0 mg/kg/injection, schedule: Q01DX010 (sc), vehicle: saline)?
A: The survivor count was 0 of 3 on day 11.

Q: And the survivor count (dose: 32.0 mg/kg/injection, schedule: Q01DX010 (sc), vehicle: saline)?
A: Its survivor count is 0 of 2 on day 11.

Q: What does the source list for `CC(=O)NC(CCc1ccc(Cl)c(Cl)c1)c1cccc(O)c(=O)c1` (stereo not drawn)?
A: survivor count (dose: 400.0 mg/kg/injection, schedule: Q04DX003 (ip), vehicle: Klucel (hydroxypropylcellulose) (HPC)): 0 of 6 on day 11; survivor count (dose: 800.0 mg/kg/injection, schedule: Q04DX003 (ip), vehicle: Klucel (hydroxypropylcellulose) (HPC)): 0 of 6 on day 11

Q: With `O=NN(CCCl)C(=O)NCCCl` as the compound, how does the survivor count (dose: 32.0 mg/kg/injection, schedule: Q01DX010 (ip), vehicle: saline) read?
A: Its survivor count is 0 of 3 on day 11.

Q: And the survivor count (dose: 106.65 mg/kg/injection, schedule: Q04DX003 (ip), vehicle: saline)?
A: Its survivor count is 0 of 3 on day 11.

Q: What about the survivor count (dose: 106.66 mg/kg/injection, schedule: Q04DX003 (ip), vehicle: saline) of the same compound?
A: The survivor count was 0 of 3 on day 11.

Q: How did the survivor count (dose: 1200.0 mg/kg/injection, schedule: Q04DX003 (ip), vehicle: DMSO) turn out when `O=C(O)[C@H](Cc1ccccc1)N1C(=O)c2ccccc2C1=O` was run?
A: Its survivor count is 0 of 6 on day 11.

Q: `Cc1cc(NCCCCCCCCNc2cc(C)nc3cc(N(C)C)ccc23)c2ccc(N(C)C)cc2n1` was tested. Which survivor count (dose: 75.0 mg/kg/injection, schedule: Q01DX010 (sc), vehicle: distilled water + Tween-80 + alcohol) did it give?
A: The survivor count was 1 of 2 on day 11.

Q: And the survivor count (dose: 150.0 mg/kg/injection, schedule: Q01DX010 (sc), vehicle: distilled water + Tween-80 + alcohol)?
A: Its survivor count is 0 of 3 on day 11.

Q: What about the survivor count (dose: 300.0 mg/kg/injection, schedule: Q01DX010 (sc), vehicle: distilled water + Tween-80 + alcohol) of the same compound?
A: Its survivor count is 0 of 3 on day 11.

Q: What about the survivor count (dose: 600.0 mg/kg/injection, schedule: Q04DX003 (sc), vehicle: distilled water + Tween-80 + alcohol) of the same compound?
A: Its survivor count is 3 of 6 on day 11.

Q: For `CC(=O)OC1C(O)C(C)OC(OC2C(OC(=O)C3CCC4C(C3)OC3(CC(OC(=O)/C=C/c5ccccc5)C(C)CO3)C43CO3)OC(C)C(O)C2OC(C)=O)C1O` (stereo not drawn), which survivor count (dose: 150.0 mg/kg/injection, schedule: Q04DX003 (sc), vehicle: distilled water + Tween-80) is on record?
A: Its survivor count is 3 of 6 on day 11.

Q: And the survivor count (dose: 300.0 mg/kg/injection, schedule: Q04DX003 (sc), vehicle: distilled water + Tween-80)?
A: The survivor count was 0 of 6 on day 11.

Q: `O=NN(CCCl)C(=O)NC1CCCCC1` was tested. Which survivor count (dose: 64.0 mg/kg/injection, schedule: Q01DX010 (sc), vehicle: saline with Tween-80) did it give?
A: The survivor count was 0 of 3 on day 11 and 1 of 3 on day 11.

Q: What about the survivor count (dose: 106.65 mg/kg/injection, schedule: Q04DX003 (sc), vehicle: saline with Tween-80) of the same compound?
A: Its survivor count is 0 of 3 on day 11.

Q: And the survivor count (dose: 213.3 mg/kg/injection, schedule: Q04DX003 (sc), vehicle: saline with Tween-80)?
A: The survivor count was 0 of 3 on day 11.

Q: How did the survivor count (dose: 800.0 mg/kg/injection, schedule: Q04DX003 (sc), vehicle: saline) turn out when `CCC(C(=O)O)C(=O)O.[NH-]CC1CCCC[N-]1.[Pt+2]` was run?
A: The survivor count was 3 of 6 on day 11.

Q: For `CSc1cc(=O)n2c3ccccc3c3ccnc1c32`, which survivor count (dose: 640.0 mg/kg/injection, schedule: Q04DX003 (sc), vehicle: saline with Tween-80) is on record?
A: Its survivor count is 3 of 5 on day 11.
